Results taken from US20240092744A1, “TRICYCLIC COMPOUND, AND PREPARATION METHOD THEREFOR AND MEDICAL USE THEREOF” (THE NATIONAL INSTITUTES OF PHARMACEUTICAL R&D CO., LTD., priority 2020, published 2024).
At least one structure is not confirmed: it was looked up by name or label, or the drawing left a doubt.

Experiment: Determination of aldehyde capture rate (nonenal as model aldehyde, HPLC quantification)
Conditions: for Aldehyde consumption (100%): 0.05 mM compound, 0.025 mM nonenal, room temperature; for Capture rate (slope of the capture curve per unit time): higher absolute value of the slope = higher capture rate
Experimental: In the aldehyde capture test disclosed in the present invention, the stable lipid metabolite, nonenal, was used as the model aldehyde to react with the compound of the Example. The specific protocol was as follows.
0.05 mM of the compounds of the Examples of the present invention were precisely weighed respectively and dissolved in 1.2 mL of a mixed solution (v/v=1:1) of triolein (Aladdin, G105172-5g) and linoleic acid (Aladdin, L100442-25g), respectively. 2.5 mL of PBS (Solarbio, P1020) solution containing 20% Captisol® (Aladdin, Cl25030-25 g) was added, and the solution was stirred at room temperature overnight. After the example compound was completely dissolved, 0.025 mM nonenal (Sigma, 255653-5G) was added, and the solution was stirred vigorously at room temperature. […] The solution was mixed vigorously by vortex for 2 minutes, and centrifuged at a low speed of 1000 r/min for 3 minutes. The supernatant was transferred to an injection vial. The nonenal in the reaction mixture was analyzed quantitatively by high performance liquid chromatography. The adduct resulted from the example compound of the present invention and nonenal was analyzed qualitatively by high performance liquid chromatography-mass spectrometry.
Liquid Chromatograph: Waters I Class;
Column: ACQUITY UPLC HSS T3 1.8 μm;
Column temperature: 40° C.;
Liquid chromatography condition: mobile phase A: acetonitrile containing 0.1% formic acid; B: water containing 0.1% formic acid;
Injection volume: 0.5 mL.
Gradient of the mobile phases: […]
In the developed detection method, the retention time of the model aldehyde nonenal was 2.42 minutes. • Mass spectrometry conditions: • Mass spectrometer: Waters TQ-S micro • Ion source: ESI^+ • Capillary voltage: 0.5 kV • Cone voltage: 10V • Source temperature: 150° C. • Degassing temperature: 500° C., degassing flow: 1000 L/Hr • SIM mode • m/z: 225.24 [(mExample 1−OH)+H]^+, 365.42 [madduct 1+H]^+
The time-varying diagram of the capture reaction of the compounds of the examples of the present invention to nonenal is shown in FIG. 1.

Structure (SMILES) | Aldehyde consumption (100%) (135 minutes) [%] | Capture rate (slope of the capture curve per unit time) (135 minutes) | Aldehyde consumption (100%) (180 minutes) [%] | Capture rate (slope of the capture curve per unit time) (180 minutes)
CCC(O)(CC)c1cc2c(cc1N)N(C)c1ccccc1O2 [Example 7, 3-(2-Amino-10-methyl-10H-phenoxazin-3-yl)pentan-3-ol] | 5.17 | −0.07 | 11.82 | −0.07
CC(C)(O)c1cc2c(cc1N)oc1ccccc12 [Example 16, 2-(3-Aminodibenzo[b,d]furan-2-yl)propan-2-ol] | 53.50 | −0.24 | 55.80 | −0.36
CC(C)(O)c1cc2c(cc1N)-c1ccccc1C2(C)C [Example 18, 2-(3-Amino-9,9-dimethyl-9H-fluoren-2-yl)propan-2-ol] | 39.10 | −0.32 | 43.96 | −0.28
CC(C)(O)c1cc2oc3ncccc3c2cc1N [Example 17, 2-(6-Aminobenzofuro[2,3-b]pyridin-7-yl)propan-2-ol] | 17.55 | −0.12 | 23.03 | −0.14
